Measurements reported in PubChem BioAssay AID504793 (Drosophila RNAi Screening Center, 2011).
Assay: 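Genes required for cells to halt at G2/M after double-strand DNA breaks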 (primary screen). System: Drosophila S2R+ cells. Reagents: long dsRNA against Drosophila genes, about 0.25 µg dsRNA per well. Time to read-out: 4 days of dsRNA, then 4 hours of drug before read-out. Conditions: doxorubicin 0.5 µM for 4 hours to cause double-strand breaks, in cells also given a low, harmless dose of dsRNA against nbs to sensitise the assay. Read-out: 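Mitotic index as the number of phospho-histone H3-positive cells in each well following doxorubicin, given as raw counts without normalisation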. Scale: mitotic cells: higher = more cells in mitosis, weaker G2 arrest. Active means: 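Genes are called active only when high mitotic counts were reproduced with independent dsRNAs and mitosis was checked for delay without damage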. Calls: active = confirmed in follow-up tests; inactive = not confirmed.
The screen tested about 23,000 reagents; this is an unselected part of those that have a named target and a result. In the full data, 62 (0.27%) are marked active. 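Calls come from follow-up tests whose scores are not deposited, so confirmed genes may have low counts here; counts are not normalised per plate.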 The raw values are shown without normalisation. A number with no mark means an inactive call. Names joined by + are all predicted targets of the reagent.

{"target gene": "fry", "dsRNA": "DRSC08993", "mitotic cells, replicate 1": 4}
{"target gene": "fry", "dsRNA": "DRSC10172", "mitotic cells, replicate 1": 10}
{"target gene": "fry", "dsRNA": "DRSC10709", "mitotic cells, replicate 1": 9}
{"target gene": "fry", "dsRNA": "DRSC10712", "mitotic cells, replicate 1": 4}
{"target gene": "exex", "dsRNA": "DRSC10972", "mitotic cells, replicate 1": 8}
{"target gene": "exex", "dsRNA": "DRSC24644", "mitotic cells, replicate 1": 4}
{"target gene": "Hand", "dsRNA": "DRSC02656", "mitotic cells, replicate 1": 12}
{"target gene": "Rpn1", "dsRNA": "DRSC11274", "mitotic cells, replicate 1": 58}
{"target gene": "CG4161", "dsRNA": "DRSC01930", "mitotic cells, replicate 1": 8}
{"target gene": "CG4161", "dsRNA": "DRSC26020", "mitotic cells, replicate 1": 8}
{"target gene": "Gs1l", "dsRNA": "DRSC00754", "mitotic cells, replicate 1": 3}
{"target gene": "Bmcp", "dsRNA": "DRSC10808", "mitotic cells, replicate 1": 2}
{"target gene": "CG13930", "dsRNA": "DRSC08399", "mitotic cells, replicate 1": 14}
{"target gene": "CG13930", "dsRNA": "DRSC28494", "mitotic cells, replicate 1": 1}
{"target gene": "P5CS", "dsRNA": "DRSC11831", "mitotic cells, replicate 1": 5}
{"target gene": "P5CS", "dsRNA": "DRSC11832", "mitotic cells, replicate 1": 4}
{"target gene": "CG14247", "dsRNA": "DRSC14742", "mitotic cells, replicate 1": 9}
{"target gene": "CG14247", "dsRNA": "DRSC24048", "mitotic cells, replicate 1": 4}
{"target gene": "Rpt4", "dsRNA": "DRSC18713", "mitotic cells, replicate 1": 83}
{"target gene": "CG6891", "dsRNA": "DRSC20016", "mitotic cells, replicate 1": 10}
{"target gene": "CG6891", "dsRNA": "DRSC25854", "mitotic cells, replicate 1": 5}
{"target gene": "CG11885", "dsRNA": "DRSC00329", "mitotic cells, replicate 1": 11}
{"target gene": "CG4367", "dsRNA": "DRSC15568", "mitotic cells, replicate 1": 5}

7 entries from above, limited to “mitotic cells, replicate 1”:
fry [DRSC10709] = 9
fry [DRSC10712] = 4
exex [DRSC10972] = 8
exex [DRSC24644] = 4
Hand [DRSC02656] = 12
Rpn1 [DRSC11274] = 58
CG4161 [DRSC01930] = 8

Next records follow:
{"target gene": "CG32590", "dsRNA": "DRSC19594", "mitotic cells, replicate 1": 9}
{"target gene": "CG3287 (retired record)", "dsRNA": "DRSC04991", "mitotic cells, replicate 1": 5}
{"target gene": "CG12885", "dsRNA": "DRSC14572", "mitotic cells, replicate 1": 14}
{"target gene": "CG12885", "dsRNA": "DRSC25241", "mitotic cells, replicate 1": 4}
{"target gene": "CG43325", "dsRNA": "DRSC04157", "mitotic cells, replicate 1": 6}
{"target gene": "Gpdh2", "dsRNA": "DRSC04346", "mitotic cells, replicate 1": 10}
{"target gene": "Snmp2", "dsRNA": "DRSC10228", "mitotic cells, replicate 1": 5}
{"target gene": "Snmp2", "dsRNA": "DRSC10843", "mitotic cells, replicate 1": 6}
{"target gene": "CG13531", "dsRNA": "DRSC04173", "mitotic cells, replicate 1": 6}
{"target gene": "Ten-m", "dsRNA": "DRSC11664", "mitotic cells, replicate 1": 2}
{"target gene": "Ten-m", "dsRNA": "DRSC11882", "mitotic cells, replicate 1": 4}
{"target gene": "CG7766", "dsRNA": "DRSC18424", "mitotic cells, replicate 1": 7}
{"target gene": "Set8", "dsRNA": "DRSC15473", "mitotic cells, replicate 1": 13}
{"target gene": "Set8", "dsRNA": "DRSC27118", "mitotic cells, replicate 1": 8}
{"target gene": "CG14453", "dsRNA": "DRSC11710", "mitotic cells, replicate 1": 8, "mitotic cells, replicate 2": 11}
{"target gene": "CG14453", "dsRNA": "DRSC23780", "mitotic cells, replicate 1": 11}
{"target gene": "waw + bbx", "dsRNA": "DRSC24894", "mitotic cells, replicate 1": 11}
{"target gene": "CG32100", "dsRNA": "DRSC09725", "mitotic cells, replicate 1": 4}
{"target gene": "CG32100", "dsRNA": "DRSC10331", "mitotic cells, replicate 1": 3}
{"target gene": "Dnah3", "dsRNA": "DRSC08130", "mitotic cells, replicate 1": 13}
{"target gene": "Dnah3", "dsRNA": "DRSC08513", "mitotic cells, replicate 1": 11}
{"target gene": "Dnah3", "dsRNA": "DRSC28789", "mitotic cells, replicate 1": 8}
